In publication PMC4811448 one finds binding data, which are given here for four molecules.

Sequences of proteins named here, by UniProt entry; tags and fusion partners are left off.
UniProt O35253: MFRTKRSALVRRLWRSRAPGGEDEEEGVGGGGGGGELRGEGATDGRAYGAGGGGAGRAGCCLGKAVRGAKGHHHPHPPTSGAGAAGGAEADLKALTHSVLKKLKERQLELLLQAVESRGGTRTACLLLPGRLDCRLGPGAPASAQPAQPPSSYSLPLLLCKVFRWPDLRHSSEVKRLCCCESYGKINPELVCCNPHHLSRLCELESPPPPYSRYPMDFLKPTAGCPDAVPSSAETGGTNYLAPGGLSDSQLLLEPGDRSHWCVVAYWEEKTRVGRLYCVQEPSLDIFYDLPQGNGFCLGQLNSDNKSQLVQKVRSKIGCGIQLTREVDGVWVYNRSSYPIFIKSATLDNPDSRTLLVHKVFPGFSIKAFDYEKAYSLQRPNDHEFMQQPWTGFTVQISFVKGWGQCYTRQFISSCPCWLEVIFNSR

These are yes or no findings as the source states them, for the method shown. Binding seen in cells or lysates may run through a third protein. Some binding calls cover weakened binding; strength is not graded here. For some assays here: Sequences can lack the tags named with a protein.

Test [1] deals with T1, LKB1 (adenovirally expressed) (UniProt Q15831).
T1 sequence: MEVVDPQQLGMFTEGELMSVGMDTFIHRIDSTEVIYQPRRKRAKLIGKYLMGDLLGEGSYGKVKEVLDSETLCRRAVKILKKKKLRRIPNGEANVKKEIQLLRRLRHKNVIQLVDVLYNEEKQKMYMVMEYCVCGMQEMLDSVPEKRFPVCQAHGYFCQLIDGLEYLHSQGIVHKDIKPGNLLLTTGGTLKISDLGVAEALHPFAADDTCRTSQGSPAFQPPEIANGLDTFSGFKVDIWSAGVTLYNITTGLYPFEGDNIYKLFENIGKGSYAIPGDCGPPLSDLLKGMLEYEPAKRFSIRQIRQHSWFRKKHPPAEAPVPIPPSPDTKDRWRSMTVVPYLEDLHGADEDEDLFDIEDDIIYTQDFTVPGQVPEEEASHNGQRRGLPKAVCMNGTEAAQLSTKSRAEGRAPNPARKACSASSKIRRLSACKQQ
In words: co-IP; C2C12 cells adenovirally expressing combinations of LKB1, constitutively active ALK2 and Smad7; immunoprecipitated with anti-LKB1 antibody; immunoblot for Smad7, HA-ALK2 and LKB1. Background: A western blot detects proteins with antibodies after separation by electrophoresis.

In test [2] the target is T1, LKB1 (adenovirally expressed). In words: proximity ligation; C2C12 cells, without or with constitutively active ALK2; anti-LKB1 and goat anti-Smad7 antibodies, Duolink reagents (Supplementary Figure 3F).
The target in test [3] is T2, endogenous mouse Lkb1 (C2C12) (mouse (endogenous in C2C12)) (UniProt Q9WTK7).
T2 sequence: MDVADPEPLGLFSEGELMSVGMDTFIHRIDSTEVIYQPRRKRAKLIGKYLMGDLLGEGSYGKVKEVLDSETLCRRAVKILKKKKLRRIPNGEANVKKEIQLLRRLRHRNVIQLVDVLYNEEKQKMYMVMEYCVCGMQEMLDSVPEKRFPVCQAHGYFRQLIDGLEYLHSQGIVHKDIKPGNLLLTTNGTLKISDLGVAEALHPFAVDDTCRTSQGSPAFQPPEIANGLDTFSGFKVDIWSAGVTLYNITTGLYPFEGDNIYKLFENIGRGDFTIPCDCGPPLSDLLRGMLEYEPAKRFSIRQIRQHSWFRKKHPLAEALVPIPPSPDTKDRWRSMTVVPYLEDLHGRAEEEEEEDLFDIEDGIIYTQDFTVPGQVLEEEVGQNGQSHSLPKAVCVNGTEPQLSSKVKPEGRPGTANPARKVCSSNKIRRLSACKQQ
In words: co-IP; endogenous proteins in C2C12 cells, without or with BMP7 for 1 h; LKB1 antibody or control mouse IgG pre-coupled to magnetic beads, overnight at 4°C; immunoblot for Smad7 and LKB1.

The target in test [4] is Flag-Smad7 (transfected) (UniProt O35253). The experiment in a line: co-IP; sequential co-immunoprecipitation from transfected HEK-293T cells; lysis in 1% NP-40, 10 mM Tris-HCl pH 7.4, 150 mM NaCl, 1 mM EDTA; first anti-Flag M5 (Flag-Smad7), elution with 100 ug Flag peptide, second anti-HA (Y-11) against HA-ALK2 wild type; immunoblot with anti-Flag, anti-HA and anti-LKB1.
In test [5] the target is T3, endogenous LKB1 (HaCaT) (human (endogenous in HaCaT)) (UniProt Q15831).
T3 sequence: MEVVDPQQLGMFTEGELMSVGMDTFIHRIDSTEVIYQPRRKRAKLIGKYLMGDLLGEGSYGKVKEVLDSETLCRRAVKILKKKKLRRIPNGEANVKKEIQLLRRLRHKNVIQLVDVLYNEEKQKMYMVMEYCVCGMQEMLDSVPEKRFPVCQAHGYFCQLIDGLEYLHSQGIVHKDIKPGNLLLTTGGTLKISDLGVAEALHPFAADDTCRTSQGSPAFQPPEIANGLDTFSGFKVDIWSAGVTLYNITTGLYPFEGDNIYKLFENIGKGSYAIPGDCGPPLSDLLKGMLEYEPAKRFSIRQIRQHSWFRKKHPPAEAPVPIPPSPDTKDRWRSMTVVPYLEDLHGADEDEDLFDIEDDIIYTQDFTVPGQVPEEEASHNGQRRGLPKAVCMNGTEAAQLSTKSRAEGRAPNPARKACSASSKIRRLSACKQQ
In words: co-IP; endogenous proteins in HaCaT cells, without or with BMP7 for 1 h; LKB1 antibody or control mouse IgG pre-coupled to magnetic beads, overnight at 4°C; immunoblot for ALK2 and LKB1.

Take “Smad7 (adenovirally expressed) (from UniProt O35253 1-426)”: in test [1], the binding result is on record as “binds”.
Turning to “endogenous Smad7 (C2C12) (from UniProt O35253 1-426)”, the binding result in test [2] and in test [3] was “binds” throughout.

B1: wild-type ACVR1/ALK2, HA-tagged (pcDNA3, transfected) (receptor, UniProt Q04771 21-509)
chain: MEDEKPKVNPKLYMCVCEGLSCGNEDHCEGQQCFSSLSINDGFHVYQKGCFQVYEQGKMTCKTPPSPGQAVECCQGDWCNRNITAQLPTKGKSFPGTQNFHLEVGLIILSVVFAVCLLACLLGVALRKFKRRNQERLNPRDVEYGTIEGLITTNVGDSTLADLLDHSCTSGSGSGLPFLVQRTVARQITLLECVGKGRYGEVWRGSWQGENVAVKIFSSRDEKSWFRETELYNTVMLRHENILGFIASDMTSRHSSTQLWLITHYHEMGSLYDYLQLTTLDTVSCLRIVLSIASGLAHLHIEIFGTQGKPAIAHRDLKSKNILVKKNGQCCIADLGLAVMHSQSTNQLDVGNNPRVGTKRYMAPEVLDETIQVDCFDSYKRVDIWAFGLVLWEVARRMVSNGIVEDYKPPFYDVVPNDPSFEDMRKVVCVDQQRPNIPNRWFSDPTLTSLAKLMKECWYQNPSARLTALRIKKTLTKIDNSLDKLKTDC
In the case of B1, the binding result in test [4] is “binds”.

B2: endogenous wild-type ALK2 receptor (HaCaT) (receptor, UniProt Q04771 21-509)
chain: MEDEKPKVNPKLYMCVCEGLSCGNEDHCEGQQCFSSLSINDGFHVYQKGCFQVYEQGKMTCKTPPSPGQAVECCQGDWCNRNITAQLPTKGKSFPGTQNFHLEVGLIILSVVFAVCLLACLLGVALRKFKRRNQERLNPRDVEYGTIEGLITTNVGDSTLADLLDHSCTSGSGSGLPFLVQRTVARQITLLECVGKGRYGEVWRGSWQGENVAVKIFSSRDEKSWFRETELYNTVMLRHENILGFIASDMTSRHSSTQLWLITHYHEMGSLYDYLQLTTLDTVSCLRIVLSIASGLAHLHIEIFGTQGKPAIAHRDLKSKNILVKKNGQCCIADLGLAVMHSQSTNQLDVGNNPRVGTKRYMAPEVLDETIQVDCFDSYKRVDIWAFGLVLWEVARRMVSNGIVEDYKPPFYDVVPNDPSFEDMRKVVCVDQQRPNIPNRWFSDPTLTSLAKLMKECWYQNPSARLTALRIKKTLTKIDNSLDKLKTDC
In the case of B2, the binding entry in test [5] is given as “binds”.
